No constants are given. Whether binding was seen depends on the method and setting. Binding seen in cells or lysates may run through a third protein. Some results given as binding are weak or reduced against the parent protein; the word gives no strength. Sequences can lack the tags named with a protein.
T1: FLAG-tagged endoglin (UniProt P17813)
T1 sequence: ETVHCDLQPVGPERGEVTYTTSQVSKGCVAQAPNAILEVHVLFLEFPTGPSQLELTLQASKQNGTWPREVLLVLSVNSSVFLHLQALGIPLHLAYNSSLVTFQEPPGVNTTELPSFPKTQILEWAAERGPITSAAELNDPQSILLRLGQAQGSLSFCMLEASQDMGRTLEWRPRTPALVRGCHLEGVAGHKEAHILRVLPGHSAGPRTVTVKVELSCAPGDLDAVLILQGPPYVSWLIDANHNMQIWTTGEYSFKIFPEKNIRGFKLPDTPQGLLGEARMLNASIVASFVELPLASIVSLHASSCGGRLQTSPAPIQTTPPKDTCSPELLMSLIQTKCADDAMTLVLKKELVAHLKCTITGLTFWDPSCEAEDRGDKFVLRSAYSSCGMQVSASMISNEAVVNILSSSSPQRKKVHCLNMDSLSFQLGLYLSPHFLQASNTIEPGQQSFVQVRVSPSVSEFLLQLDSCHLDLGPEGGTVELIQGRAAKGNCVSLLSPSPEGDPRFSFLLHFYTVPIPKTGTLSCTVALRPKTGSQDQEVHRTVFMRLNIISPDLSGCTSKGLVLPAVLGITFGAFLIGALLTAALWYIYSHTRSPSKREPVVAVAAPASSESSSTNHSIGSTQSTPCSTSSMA

The chains behind the UniProt entries cited, without tags or fusion partners. Residues count along the entry.
UniProt P27037, residues 20-513: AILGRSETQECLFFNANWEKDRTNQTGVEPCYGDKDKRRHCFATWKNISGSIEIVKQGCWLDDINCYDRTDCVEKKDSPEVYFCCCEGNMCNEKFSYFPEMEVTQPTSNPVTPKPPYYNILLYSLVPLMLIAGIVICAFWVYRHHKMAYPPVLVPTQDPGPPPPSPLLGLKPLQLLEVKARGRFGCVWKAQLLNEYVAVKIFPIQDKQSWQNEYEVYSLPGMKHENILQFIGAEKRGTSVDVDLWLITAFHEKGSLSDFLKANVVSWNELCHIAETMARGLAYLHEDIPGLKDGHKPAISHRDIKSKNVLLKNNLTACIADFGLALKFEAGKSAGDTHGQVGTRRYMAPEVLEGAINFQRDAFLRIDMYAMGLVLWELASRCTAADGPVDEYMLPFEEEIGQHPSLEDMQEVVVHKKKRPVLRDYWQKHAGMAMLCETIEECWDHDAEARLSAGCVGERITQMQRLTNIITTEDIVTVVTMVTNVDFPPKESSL
UniProt Q13873, residues 27-1038: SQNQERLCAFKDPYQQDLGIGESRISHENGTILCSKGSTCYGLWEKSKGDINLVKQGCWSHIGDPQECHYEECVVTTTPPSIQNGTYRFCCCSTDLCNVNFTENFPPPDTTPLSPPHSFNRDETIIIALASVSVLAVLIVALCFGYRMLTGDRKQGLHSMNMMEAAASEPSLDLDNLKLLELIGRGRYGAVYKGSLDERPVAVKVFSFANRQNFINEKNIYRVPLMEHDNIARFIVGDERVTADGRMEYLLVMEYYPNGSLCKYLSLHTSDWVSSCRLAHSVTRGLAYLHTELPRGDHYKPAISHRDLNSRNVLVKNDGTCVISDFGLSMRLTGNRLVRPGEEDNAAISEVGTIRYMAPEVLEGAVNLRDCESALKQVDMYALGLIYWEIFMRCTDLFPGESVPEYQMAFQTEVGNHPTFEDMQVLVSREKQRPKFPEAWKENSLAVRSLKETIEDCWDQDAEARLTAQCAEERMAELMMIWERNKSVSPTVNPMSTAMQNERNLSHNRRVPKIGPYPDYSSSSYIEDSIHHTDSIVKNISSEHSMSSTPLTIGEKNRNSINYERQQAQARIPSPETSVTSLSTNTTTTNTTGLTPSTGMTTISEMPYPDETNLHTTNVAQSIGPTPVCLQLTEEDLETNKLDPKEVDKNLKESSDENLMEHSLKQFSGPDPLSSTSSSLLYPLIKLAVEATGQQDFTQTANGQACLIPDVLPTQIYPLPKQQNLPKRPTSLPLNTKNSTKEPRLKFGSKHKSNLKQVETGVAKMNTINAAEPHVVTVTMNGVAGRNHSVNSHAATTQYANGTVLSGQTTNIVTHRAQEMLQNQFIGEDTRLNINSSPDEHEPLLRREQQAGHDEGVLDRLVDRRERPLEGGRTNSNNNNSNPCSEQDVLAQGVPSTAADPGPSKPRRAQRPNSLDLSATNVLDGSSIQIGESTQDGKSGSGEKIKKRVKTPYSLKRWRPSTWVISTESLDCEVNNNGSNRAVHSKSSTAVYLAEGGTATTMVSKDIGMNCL

B1: FLAG-tagged endoglin (receptor, UniProt P17813 26-658)
chain: ETVHCDLQPVGPERGEVTYTTSQVSKGCVAQAPNAILEVHVLFLEFPTGPSQLELTLQASKQNGTWPREVLLVLSVNSSVFLHLQALGIPLHLAYNSSLVTFQEPPGVNTTELPSFPKTQILEWAAERGPITSAAELNDPQSILLRLGQAQGSLSFCMLEASQDMGRTLEWRPRTPALVRGCHLEGVAGHKEAHILRVLPGHSAGPRTVTVKVELSCAPGDLDAVLILQGPPYVSWLIDANHNMQIWTTGEYSFKIFPEKNIRGFKLPDTPQGLLGEARMLNASIVASFVELPLASIVSLHASSCGGRLQTSPAPIQTTPPKDTCSPELLMSLIQTKCADDAMTLVLKKELVAHLKCTITGLTFWDPSCEAEDRGDKFVLRSAYSSCGMQVSASMISNEAVVNILSSSSPQRKKVHCLNMDSLSFQLGLYLSPHFLQASNTIEPGQQSFVQVRVSPSVSEFLLQLDSCHLDLGPEGGTVELIQGRAAKGNCVSLLSPSPEGDPRFSFLLHFYTVPIPKTGTLSCTVALRPKTGSQDQEVHRTVFMRLNIISPDLSGCTSKGLVLPAVLGITFGAFLIGALLTAALWYIYSHTRSPSKREPVVAVAAPASSESSSTNHSIGSTQSTPCSTSSMA
B2: untagged endoglin (receptor, UniProt P17813 26-658)
chain: ETVHCDLQPVGPERGEVTYTTSQVSKGCVAQAPNAILEVHVLFLEFPTGPSQLELTLQASKQNGTWPREVLLVLSVNSSVFLHLQALGIPLHLAYNSSLVTFQEPPGVNTTELPSFPKTQILEWAAERGPITSAAELNDPQSILLRLGQAQGSLSFCMLEASQDMGRTLEWRPRTPALVRGCHLEGVAGHKEAHILRVLPGHSAGPRTVTVKVELSCAPGDLDAVLILQGPPYVSWLIDANHNMQIWTTGEYSFKIFPEKNIRGFKLPDTPQGLLGEARMLNASIVASFVELPLASIVSLHASSCGGRLQTSPAPIQTTPPKDTCSPELLMSLIQTKCADDAMTLVLKKELVAHLKCTITGLTFWDPSCEAEDRGDKFVLRSAYSSCGMQVSASMISNEAVVNILSSSSPQRKKVHCLNMDSLSFQLGLYLSPHFLQASNTIEPGQQSFVQVRVSPSVSEFLLQLDSCHLDLGPEGGTVELIQGRAAKGNCVSLLSPSPEGDPRFSFLLHFYTVPIPKTGTLSCTVALRPKTGSQDQEVHRTVFMRLNIISPDLSGCTSKGLVLPAVLGITFGAFLIGALLTAALWYIYSHTRSPSKREPVVAVAAPASSESSSTNHSIGSTQSTPCSTSSMA

How the values were obtained:
[1] = target: Myc-tagged wild type activin A receptor type IIA (UniProt P27037); experiment: co-IP; PC3-M cells transiently co-transfected; surface proteins crosslinked with 2 mM DTSSP before lysis (10 mM Tris HCl pH 7.4, 145 mM NaCl, 10% glycerol, 0.5% NP-40); IP with anti-FLAG or anti-Myc overnight at 4°C; crosslinker cleaved before Western blot
[2] = target: FLAG-tagged wild type bone morphogenetic protein receptor type II (UniProt Q13873); experiment: as above
FLAG-tagged endoglin = target: T1, FLAG-tagged endoglin; experiment: as above
[3] = target: FLAG-tagged wild type bone morphogenetic protein receptor type II (UniProt Q13873); experiment: condition: only without crosslinking of cell surface proteins; co-IP; as a1 but surface proteins of the PC3-M cells not crosslinked (-); FLAG-BMPRII immunoprecipitated, blot for endoglin

binding [1]	binding [2]	binding (FLAG-tagged endoglin)	binding [3]	Molecule
binds				FLAG-tagged wild type bone morphogenetic protein receptor type II (from UniProt Q13873 27-1038)
	binds	binds		Myc-tagged wild type activin A receptor type IIA (from UniProt P27037 20-513)
binds				B1
	binds		no binding	B2

— publication PMC3742533
